Drawing on paper PMC7814966, this text covers binding for one substance.

By UniProt entry, the sequences of proteins in these tests, tags left out.
UniProt G4MYS1: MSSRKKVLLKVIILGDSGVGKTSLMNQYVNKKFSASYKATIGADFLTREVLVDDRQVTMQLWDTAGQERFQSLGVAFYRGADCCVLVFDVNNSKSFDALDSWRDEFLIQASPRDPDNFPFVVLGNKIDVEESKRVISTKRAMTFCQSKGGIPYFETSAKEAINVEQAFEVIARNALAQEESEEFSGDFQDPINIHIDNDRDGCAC

In the test the target is GFP-MoYpt7 (Magnaporthe oryzae) (UniProt G4MYS1). Briefly: co-IP.

These are yes or no findings as the source states them, for the method shown. Binding seen in cells or lysates may run through a third protein. Some binding calls cover weakened binding; strength is not graded here.

For “MoVps35-FLAG (from UniProt G4N4D6 1-898)”, the binding entry was “binds”.
